Measurements: patent publication US20240210419A1 (UNIVERSITY OF VIRGINIA PATENT FOUNDATION, published 2024)
Results are given in words; binding and its absence hold for the method and conditions named. Some entries that bind do so weakly or less than the wild type.

Protein sequences, listed by entry. Tags and fused reporters are not part of them. Lines headed by an entry give the natural chain unless they say otherwise; changes in a name come on top. Chains listed by the source or under a name are the forms on record and can include a tag or linker.
FN-4G-10 recombinant fibronectin fragment (diseased form mimic) (P02751, form named): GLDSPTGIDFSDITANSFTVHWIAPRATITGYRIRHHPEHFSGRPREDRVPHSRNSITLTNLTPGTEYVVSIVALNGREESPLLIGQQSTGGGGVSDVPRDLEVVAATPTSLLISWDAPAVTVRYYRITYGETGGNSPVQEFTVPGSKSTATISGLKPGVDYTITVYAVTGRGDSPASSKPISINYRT

What was measured:
[1] = molecular target: FN-4G-10 recombinant fibronectin fragment (diseased form mimic) (UniProt P02751); experiment: ELISA (summary of EXAMPLE 1)
[2] = molecular target: FN-4G-10 recombinant fibronectin fragment (diseased form mimic) (UniProt P02751); experiment: ELISA, fibronectin fragment tethered to maleimide activated plate
[3] = molecular target: FN-4G-10 recombinant fibronectin fragment (diseased form mimic) (UniProt P02751); experiment: ELISA, fibronectin fragment tethered on maleimide-activated plate, colorimetric detection (absorbance)
[4] = molecular target: FN-4G-10 recombinant fibronectin fragment (diseased form mimic) (UniProt P02751); experiment: summary sentence in the discussion of the examples; paragraph 206 says the H5-IgG1 supernatants were used in the ELISA binding assay of EXAMPLE 1

Measured: binding

B1: modified H5-IgG1 antibody (antibody, V domains shown)
VH: EVQLLESGGGLVQPGGSLRLSCAASGFTFSSYAMSWVRQAPGKGLEWVSDIYDGGGTNYADSVKGRFTTSRDNSKNTLYLQMNSLRAEDTAVYYCAKTADNFDYWGQGTLVTVSS
VL: DIQMTQSPSSLSASVGDRVTITCRASQSISSYLNWYQQKPGKAPKLLIYAASTLQSGVPSRFSGSGSGTDFTLTISSLQPEDFATYYCQQANSAPTTFGQGTKVEIKR
notes: Full length IgG1 format; Made in a plug-and-(dis)play (PnP) hybridoma cell line; also called modified IgG1 format of H5
binds: all assays above
